Measurements reported in article doi:10.1101/2021.03.31.437874.
Results are given in words; binding and its absence hold for the method and conditions named. Binding seen in cells or lysates may run through a third protein. Some results given as binding are weak or reduced against the parent protein; the word gives no strength. Tags and fused reporters may be left off the sequences shown.

The chains behind the UniProt entries cited, without tags or fusion partners.
UniProt P39687: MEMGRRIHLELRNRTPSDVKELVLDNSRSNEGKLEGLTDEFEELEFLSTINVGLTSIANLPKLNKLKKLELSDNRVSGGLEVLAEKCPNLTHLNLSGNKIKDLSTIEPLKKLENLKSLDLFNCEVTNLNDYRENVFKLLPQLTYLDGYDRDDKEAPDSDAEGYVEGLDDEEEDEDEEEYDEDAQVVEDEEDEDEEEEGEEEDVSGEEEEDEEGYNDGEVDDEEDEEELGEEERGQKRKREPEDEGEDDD
UniProt Q640Z6: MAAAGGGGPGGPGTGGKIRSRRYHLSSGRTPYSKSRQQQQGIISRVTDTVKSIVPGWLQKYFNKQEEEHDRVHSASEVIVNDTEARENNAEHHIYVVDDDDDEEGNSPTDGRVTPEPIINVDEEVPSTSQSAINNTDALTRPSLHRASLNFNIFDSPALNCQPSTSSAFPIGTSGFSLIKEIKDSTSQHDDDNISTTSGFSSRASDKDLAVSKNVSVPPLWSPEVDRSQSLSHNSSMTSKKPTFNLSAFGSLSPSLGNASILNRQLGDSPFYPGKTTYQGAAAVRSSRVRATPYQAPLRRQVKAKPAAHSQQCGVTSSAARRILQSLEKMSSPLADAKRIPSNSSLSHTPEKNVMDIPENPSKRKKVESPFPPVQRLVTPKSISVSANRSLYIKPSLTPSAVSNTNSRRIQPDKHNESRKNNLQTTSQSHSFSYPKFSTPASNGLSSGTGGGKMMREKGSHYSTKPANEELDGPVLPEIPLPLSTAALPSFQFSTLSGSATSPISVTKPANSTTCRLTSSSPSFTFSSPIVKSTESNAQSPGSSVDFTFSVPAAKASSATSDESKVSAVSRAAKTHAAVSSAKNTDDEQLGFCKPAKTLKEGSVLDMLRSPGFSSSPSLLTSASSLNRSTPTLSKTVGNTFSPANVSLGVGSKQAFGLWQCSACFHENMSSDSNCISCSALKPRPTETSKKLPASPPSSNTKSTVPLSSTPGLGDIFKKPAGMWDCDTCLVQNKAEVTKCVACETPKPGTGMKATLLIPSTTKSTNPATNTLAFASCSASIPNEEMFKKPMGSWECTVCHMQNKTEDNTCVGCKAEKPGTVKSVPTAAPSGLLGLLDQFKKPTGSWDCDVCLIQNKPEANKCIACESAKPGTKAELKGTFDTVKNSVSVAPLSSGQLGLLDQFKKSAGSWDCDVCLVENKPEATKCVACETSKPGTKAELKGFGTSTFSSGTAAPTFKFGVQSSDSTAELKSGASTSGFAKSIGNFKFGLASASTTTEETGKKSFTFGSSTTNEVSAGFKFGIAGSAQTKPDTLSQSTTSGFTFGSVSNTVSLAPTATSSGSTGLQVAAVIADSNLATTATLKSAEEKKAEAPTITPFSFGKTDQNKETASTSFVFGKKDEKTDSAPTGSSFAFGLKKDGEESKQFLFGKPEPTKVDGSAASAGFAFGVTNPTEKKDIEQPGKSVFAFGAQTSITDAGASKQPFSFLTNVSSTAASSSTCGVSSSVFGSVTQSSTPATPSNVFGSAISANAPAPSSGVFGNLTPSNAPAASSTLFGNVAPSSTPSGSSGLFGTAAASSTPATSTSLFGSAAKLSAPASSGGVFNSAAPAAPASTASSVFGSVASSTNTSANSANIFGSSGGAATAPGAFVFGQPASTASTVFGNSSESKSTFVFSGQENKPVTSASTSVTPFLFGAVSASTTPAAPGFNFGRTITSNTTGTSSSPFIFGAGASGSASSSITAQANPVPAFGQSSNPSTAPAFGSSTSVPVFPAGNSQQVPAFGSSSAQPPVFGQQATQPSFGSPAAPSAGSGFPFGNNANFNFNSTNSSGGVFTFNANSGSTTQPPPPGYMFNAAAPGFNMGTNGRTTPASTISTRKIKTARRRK
UniProt Q5U249: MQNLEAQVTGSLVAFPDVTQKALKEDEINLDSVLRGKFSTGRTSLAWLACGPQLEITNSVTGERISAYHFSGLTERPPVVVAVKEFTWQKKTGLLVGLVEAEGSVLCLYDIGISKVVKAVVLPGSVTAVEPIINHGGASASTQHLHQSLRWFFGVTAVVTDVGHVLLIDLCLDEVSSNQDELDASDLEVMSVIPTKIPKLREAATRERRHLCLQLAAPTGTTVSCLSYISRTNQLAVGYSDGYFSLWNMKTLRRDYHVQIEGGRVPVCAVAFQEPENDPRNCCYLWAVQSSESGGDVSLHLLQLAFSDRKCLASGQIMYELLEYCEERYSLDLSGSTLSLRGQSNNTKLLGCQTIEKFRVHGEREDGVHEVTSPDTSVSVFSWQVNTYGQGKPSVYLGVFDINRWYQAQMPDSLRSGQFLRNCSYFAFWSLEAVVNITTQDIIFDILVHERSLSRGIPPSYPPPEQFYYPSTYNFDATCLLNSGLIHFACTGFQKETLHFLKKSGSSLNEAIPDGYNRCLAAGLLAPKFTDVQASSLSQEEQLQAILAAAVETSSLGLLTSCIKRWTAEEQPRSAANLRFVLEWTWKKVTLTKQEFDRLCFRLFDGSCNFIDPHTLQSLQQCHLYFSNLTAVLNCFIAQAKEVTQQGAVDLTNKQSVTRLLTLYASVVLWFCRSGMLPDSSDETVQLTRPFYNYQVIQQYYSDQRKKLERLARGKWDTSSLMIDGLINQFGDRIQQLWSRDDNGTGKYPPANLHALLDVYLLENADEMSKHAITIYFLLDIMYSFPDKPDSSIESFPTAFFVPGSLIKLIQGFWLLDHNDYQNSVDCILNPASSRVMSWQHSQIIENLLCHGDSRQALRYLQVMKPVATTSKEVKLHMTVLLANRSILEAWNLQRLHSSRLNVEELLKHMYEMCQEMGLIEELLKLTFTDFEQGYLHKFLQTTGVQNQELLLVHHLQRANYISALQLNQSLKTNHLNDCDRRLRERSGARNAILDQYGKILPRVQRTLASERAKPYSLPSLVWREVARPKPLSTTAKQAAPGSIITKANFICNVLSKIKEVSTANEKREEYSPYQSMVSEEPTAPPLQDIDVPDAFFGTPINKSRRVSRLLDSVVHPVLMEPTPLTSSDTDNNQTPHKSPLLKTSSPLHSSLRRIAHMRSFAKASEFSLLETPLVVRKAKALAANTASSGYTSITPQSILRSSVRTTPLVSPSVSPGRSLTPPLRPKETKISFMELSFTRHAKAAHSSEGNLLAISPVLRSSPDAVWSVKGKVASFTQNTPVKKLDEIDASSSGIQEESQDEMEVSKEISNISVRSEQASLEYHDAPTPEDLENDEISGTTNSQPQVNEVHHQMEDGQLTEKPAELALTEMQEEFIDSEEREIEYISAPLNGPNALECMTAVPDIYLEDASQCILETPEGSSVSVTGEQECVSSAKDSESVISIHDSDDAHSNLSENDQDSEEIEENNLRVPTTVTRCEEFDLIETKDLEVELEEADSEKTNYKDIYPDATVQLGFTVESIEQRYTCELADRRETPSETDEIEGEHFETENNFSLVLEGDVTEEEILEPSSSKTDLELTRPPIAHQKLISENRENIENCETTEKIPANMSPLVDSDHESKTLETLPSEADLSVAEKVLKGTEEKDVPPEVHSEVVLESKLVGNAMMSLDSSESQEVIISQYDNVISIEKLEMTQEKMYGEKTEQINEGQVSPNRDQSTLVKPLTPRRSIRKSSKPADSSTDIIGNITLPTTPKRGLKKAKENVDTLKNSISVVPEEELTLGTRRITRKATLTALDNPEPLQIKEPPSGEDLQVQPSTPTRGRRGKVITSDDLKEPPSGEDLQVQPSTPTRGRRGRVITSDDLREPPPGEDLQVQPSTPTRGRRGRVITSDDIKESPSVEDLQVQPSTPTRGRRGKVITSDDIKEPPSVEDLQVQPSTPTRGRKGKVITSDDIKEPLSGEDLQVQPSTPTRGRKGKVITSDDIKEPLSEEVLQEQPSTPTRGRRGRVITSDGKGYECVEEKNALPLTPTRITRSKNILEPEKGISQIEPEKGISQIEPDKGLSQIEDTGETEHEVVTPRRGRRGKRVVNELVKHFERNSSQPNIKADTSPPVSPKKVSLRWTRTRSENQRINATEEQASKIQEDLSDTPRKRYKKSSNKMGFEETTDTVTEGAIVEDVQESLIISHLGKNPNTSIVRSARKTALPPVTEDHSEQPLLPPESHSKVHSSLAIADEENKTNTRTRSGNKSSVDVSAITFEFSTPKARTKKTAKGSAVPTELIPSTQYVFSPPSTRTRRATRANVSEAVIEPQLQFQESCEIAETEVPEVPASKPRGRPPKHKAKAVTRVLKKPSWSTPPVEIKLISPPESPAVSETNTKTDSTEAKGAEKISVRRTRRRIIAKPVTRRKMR
UniProt P18754: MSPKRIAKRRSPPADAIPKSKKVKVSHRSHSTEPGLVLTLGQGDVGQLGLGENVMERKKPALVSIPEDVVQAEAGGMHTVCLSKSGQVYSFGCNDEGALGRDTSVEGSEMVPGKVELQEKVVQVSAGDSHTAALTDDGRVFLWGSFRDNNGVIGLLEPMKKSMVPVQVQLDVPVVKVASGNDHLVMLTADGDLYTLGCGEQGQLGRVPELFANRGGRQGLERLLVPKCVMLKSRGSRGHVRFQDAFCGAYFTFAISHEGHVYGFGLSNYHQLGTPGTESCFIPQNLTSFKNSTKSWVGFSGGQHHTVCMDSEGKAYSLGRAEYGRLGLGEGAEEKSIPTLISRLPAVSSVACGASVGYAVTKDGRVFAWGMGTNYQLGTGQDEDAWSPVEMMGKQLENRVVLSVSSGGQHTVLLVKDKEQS

Experiments:
[1] = molecular target: T1, FLAG-Nup50 N-terminal fragment (aa 1-120 of the human sequence) (human) (UniProt Q9UKX7); test: co-IP
T1 sequence: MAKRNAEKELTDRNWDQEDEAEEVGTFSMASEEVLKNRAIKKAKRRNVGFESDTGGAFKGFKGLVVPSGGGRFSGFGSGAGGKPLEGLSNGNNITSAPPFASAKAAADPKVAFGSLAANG

[2] = molecular target: T2, mouse Nup50A C-terminally tagged with EGFP (mouse) (UniProt Q9JIH2); test: co-IP
T2 sequence: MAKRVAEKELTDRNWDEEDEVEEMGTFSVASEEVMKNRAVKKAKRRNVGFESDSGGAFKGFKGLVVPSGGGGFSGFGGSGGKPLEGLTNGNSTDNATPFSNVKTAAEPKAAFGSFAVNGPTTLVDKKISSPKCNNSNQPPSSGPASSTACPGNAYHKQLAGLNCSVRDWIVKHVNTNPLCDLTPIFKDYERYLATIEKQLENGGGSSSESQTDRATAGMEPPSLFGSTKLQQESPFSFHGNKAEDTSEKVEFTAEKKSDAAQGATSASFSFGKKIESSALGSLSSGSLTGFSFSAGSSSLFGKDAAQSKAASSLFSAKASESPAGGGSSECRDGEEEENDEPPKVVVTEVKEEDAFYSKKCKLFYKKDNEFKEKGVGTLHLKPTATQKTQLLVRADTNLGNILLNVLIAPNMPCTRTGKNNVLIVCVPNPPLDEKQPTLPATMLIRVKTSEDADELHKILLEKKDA

[3] = molecular target: T3, mouse Nup50A N-terminally tagged with EGFP (mouse) (UniProt Q9JIH2); test: co-IP
T3 sequence: T2 sequence

[4] = molecular target: T4, GST-fusion of mouse Nup50A (mouse) (UniProt Q9JIH2); test: pull-down
T4 sequence: T2 sequence

[5] = molecular target: T5, FLAG-tagged 29-120 fragment of human Nup50 (human) (UniProt Q9UKX7); test: co-IP
T5 sequence: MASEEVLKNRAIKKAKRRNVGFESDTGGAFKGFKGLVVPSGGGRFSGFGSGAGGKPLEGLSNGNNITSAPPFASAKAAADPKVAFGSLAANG

ANP32A, endogenous in HEK293T (from UniProt P39687 1-249)
binding [1]: binds
binding [2]: no binding
binding [3]: no binding

Nup153 (endogenous, Xenopus egg extracts) (from UniProt Q640Z6 1-1605)
binding [4]: binds

MEL28/ELYS (endogenous, Xenopus egg extracts) (from UniProt Q5U249 1-2408)
binding [4]: binds

RCC1, endogenous in HEK293T (from UniProt P18754 1-421) (enzyme)
binding [5]: binds
binding [1]: binds
